Results are given in words; binding and its absence hold for the method and conditions named. Binding seen in cells or lysates may run through a third protein. Some binding calls cover weakened binding; strength is not graded here.
Biological target: high mobility group box 1 (HMGB1) (human (endogenous in SiHa or HeLa cervical cancer cells)) (UniProt P09429)
Assay: co-IP; HMGB1 immunoprecipitated (Protein A/G Plus Agarose Immunoprecipitation Kit), BRG1 detected by western blot; cervical cancer cells with LNMAS overexpression or LNMAS knockdown

The chains behind the UniProt entries cited, without tags or fusion partners.
UniProt P09429: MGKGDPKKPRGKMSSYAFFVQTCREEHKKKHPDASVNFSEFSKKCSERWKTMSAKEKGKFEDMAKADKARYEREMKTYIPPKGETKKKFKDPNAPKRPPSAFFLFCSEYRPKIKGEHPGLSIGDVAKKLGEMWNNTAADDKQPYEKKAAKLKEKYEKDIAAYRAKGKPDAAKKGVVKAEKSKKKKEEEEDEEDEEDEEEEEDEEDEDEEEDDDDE
UniProt P51532: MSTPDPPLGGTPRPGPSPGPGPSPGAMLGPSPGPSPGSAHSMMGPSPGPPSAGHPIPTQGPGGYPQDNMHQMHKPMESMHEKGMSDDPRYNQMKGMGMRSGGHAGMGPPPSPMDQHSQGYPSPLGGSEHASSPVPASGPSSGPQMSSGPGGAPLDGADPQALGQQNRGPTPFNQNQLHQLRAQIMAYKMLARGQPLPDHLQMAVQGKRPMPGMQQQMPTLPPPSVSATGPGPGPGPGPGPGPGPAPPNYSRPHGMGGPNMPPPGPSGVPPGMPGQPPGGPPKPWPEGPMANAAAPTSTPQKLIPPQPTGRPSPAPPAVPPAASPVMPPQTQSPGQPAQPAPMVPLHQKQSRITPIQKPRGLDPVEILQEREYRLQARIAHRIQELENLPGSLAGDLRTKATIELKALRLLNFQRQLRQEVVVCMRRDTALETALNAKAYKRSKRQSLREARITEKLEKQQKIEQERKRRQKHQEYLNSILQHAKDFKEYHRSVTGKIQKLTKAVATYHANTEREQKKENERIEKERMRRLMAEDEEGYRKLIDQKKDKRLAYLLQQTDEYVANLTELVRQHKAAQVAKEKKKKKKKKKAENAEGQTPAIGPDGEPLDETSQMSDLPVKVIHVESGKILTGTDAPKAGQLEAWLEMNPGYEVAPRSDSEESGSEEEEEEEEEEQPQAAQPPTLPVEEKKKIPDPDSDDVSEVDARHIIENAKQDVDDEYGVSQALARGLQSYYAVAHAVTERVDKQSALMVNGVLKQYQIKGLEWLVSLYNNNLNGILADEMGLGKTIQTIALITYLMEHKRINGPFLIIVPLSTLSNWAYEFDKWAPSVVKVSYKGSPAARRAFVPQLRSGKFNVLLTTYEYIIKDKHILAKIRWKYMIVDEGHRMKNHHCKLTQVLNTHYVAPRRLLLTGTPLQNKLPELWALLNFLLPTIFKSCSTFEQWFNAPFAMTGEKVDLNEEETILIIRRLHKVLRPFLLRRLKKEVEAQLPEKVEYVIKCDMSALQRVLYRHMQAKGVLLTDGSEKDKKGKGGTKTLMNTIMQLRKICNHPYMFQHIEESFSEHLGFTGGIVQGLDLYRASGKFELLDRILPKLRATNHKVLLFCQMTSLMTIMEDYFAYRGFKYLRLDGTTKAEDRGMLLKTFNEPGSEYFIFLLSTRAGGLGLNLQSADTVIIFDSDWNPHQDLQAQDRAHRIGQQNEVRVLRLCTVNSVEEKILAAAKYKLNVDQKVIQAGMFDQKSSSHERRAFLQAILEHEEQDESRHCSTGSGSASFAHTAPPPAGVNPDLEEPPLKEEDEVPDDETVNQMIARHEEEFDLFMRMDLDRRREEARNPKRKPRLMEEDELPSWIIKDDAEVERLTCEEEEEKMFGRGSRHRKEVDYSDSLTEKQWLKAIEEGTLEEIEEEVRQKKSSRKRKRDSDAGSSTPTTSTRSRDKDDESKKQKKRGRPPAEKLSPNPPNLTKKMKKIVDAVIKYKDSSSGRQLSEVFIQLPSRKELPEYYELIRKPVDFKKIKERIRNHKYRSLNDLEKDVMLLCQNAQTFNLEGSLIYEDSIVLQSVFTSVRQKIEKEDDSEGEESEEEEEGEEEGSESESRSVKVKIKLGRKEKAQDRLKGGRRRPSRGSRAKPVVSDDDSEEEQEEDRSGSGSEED

BRG1, the core subunit of SWI/SNF complex (from UniProt P51532 1-1647)
binding: binds
